The campaign covered roughly 330,000 compounds. About 7,700 (2.3%) were called active. The shares of active, inactive and inconclusive entries below differ from those in the screen. The call rests on the fitted dose curve; in most records, active means well fitted inhibition curve with a large enough effect; inconclusive means small, poorly fitted or top-dose-only effect, or effect the other way; inactive means flat fitted curve, though single readings scatter. Potencies of inconclusive entries are doubtful fits and often do not repeat.
Assay: qHTS screen for small molecules that inhibit ELG1-dependent DNA repair in human embryonic kidney (HEK293T) cells expressing luciferase-tagged ELG1; further: nearly all actives have a fitted effect of over 55% in size
Conditions: HEK293T ELG1-luciferase reporter, luminescence, 16 h, DNA damage induced by 5-fluorouridine; series mostly up to 46.1 µM
In short: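 In this reporter screen, reduction of luminescence relative to DMSO vehicle indicated activity. Compounds and 5-fluorouridine were added together to 2,000 cells per well, incubated for 16 hr at 37 °C, then developed with ONE-Glo.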
In the case of `COC(=O)/C=C/c1cnc[nH]1`, the Potency is reported as “inactive”. In the case of `COc1ccc(S(=O)(=O)N2CCCC(C(=O)N3CCOCC3)C2)cc1C` (stereo not drawn), the Potency is reported as “inactive”. With `C=CCN1C(=O)CSC1=Nc1ccc(O)cc1` the Potency was “inactive”. For `CSCCC1NC(=O)N(CC(=O)Nc2cccc(S(=O)(=O)N3CCCCCC3)c2)C1=O` (stereo not drawn), the Potency was inconclusive: 29.1 µM [inhibitor, single point]. With `O=C(Nc1ccc(NC(=S)NC(=O)c2cccs2)cc1)c1ccccc1` the Potency was inconclusive: 6.51 µM [inhibitor, partial curve, poor fit]. With `CCOc1ccccc1C1CC(c2cccc(NS(C)(=O)=O)c2)=NN1C(=O)c1ccccc1` (stereo not drawn) the Potency was inconclusive: 16.4 µM [inhibitor, partial curve]. With `Cc1ccc(Oc2cc(NC(=O)CCCn3nc(C)c([N+](=O)[O-])c3C)cc([N+](=O)[O-])c2)cc1` the Potency was inconclusive: 29.1 µM [inhibitor, single point]. With `O=C(NCCc1ccccn1)c1c(-c2ccccc2)sc2ccccc12` the Potency was “inactive”. For `O=S(=O)(c1cccc(-c2csc(N/N=C/c3ccco3)n2)c1)N1CCOCC1`, the Potency was active: 23.1 µM. In the case of `S=c1nc(-c2ccccc2)oc2c1CCCC2`, the Potency is reported as inconclusive: 14.1 µM [activator, partial curve, poor fit]. For `COc1ccc2sc(-c3ccc(N(C)C)cc3)c(-c3ccc4cc[nH]c4c3)c2c1`, the Potency was inconclusive: 14.6 µM [activator, partial curve]. In the case of `COc1nc(N)c(S(=O)(=O)c2ccc(C)cc2)cc1C#N`, the Potency is reported as inconclusive: 5.17 µM [activator, partial curve]. With `CSc1ccccc1OCc1cc(C(=O)NCCCn2nc(C)cc2C)no1` the Potency was inconclusive: 18.3 µM [inhibitor, single point]. With `CCCc1ncc(CN2CCCC(C(=O)Nc3ccc(-c4cccc(OC)c4)cc3)C2)cn1` (stereo not drawn) the Potency was inconclusive: 23.1 µM [inhibitor, single point]. For `COc1ccc(/C=C2\SC(N)=NC2=O)cc1`, the Potency was “inactive”. For `COc1ccc(C2NC(=O)c3ccccc3N2)cc1OC` (stereo not drawn), the Potency was inconclusive: 20.6 µM [activator, single point]. For `CSc1ccc(/C=N\Nc2nncn2N)cc1`, the Potency was inconclusive: 29.1 µM [activator, single point]. For `O=C(NCC(c1ccco1)N1CCc2ccccc2C1)C(=O)Nc1ccccc1` (stereo not drawn), the Potency was inconclusive: 1.46 µM [activator, partial curve, poor fit]. For `Nc1c(C(=O)Nc2ccccc2Cl)nnn1-c1ccc2c(c1)OCCO2`, the Potency was inconclusive: 2.59 µM [activator, full curve]. In the case of `O=C(NNC(=O)C1COc2ccccc2O1)c1ccccc1O` (stereo not drawn), the Potency is reported as “inactive”. In the case of `CC(=O)OCC(=O)C1(O)CCC2C3CCC4=CC(=O)C=CC4(C)C3C(O)CC21C` (stereo not drawn), the Potency is reported as “inactive”. For `CC(=O)n1cc([C@H]2C=C(C(=O)N3CCN(Cc4ccc5c(c4)OCO5)CC3)O[C@@H](OCc3ccc(CO)cc3)C2)c2ccccc21`, the Potency was inconclusive: 16.4 µM [inhibitor, partial curve]. With `COC(=O)N1N=C(c2ccc(Br)cc2)CC1(O)C(F)(F)F` (stereo not drawn) the Potency was inconclusive: 10.3 µM [activator, partial curve]. With `Cc1ccc(CS(=O)Cc2ccc(C(=O)NCc3ccccc3Cl)o2)cc1` (stereo not drawn) the Potency was “inactive”. With `CCOc1ccc(-n2cnc3sc(C)c(C)c3c2=O)cc1` the Potency was “inactive”. In the case of `COc1ccc(CCN(Cc2ccccn2)C(=S)Nc2ccccc2Cl)cc1OC`, the Potency is reported as inconclusive: 20.6 µM [inhibitor, single point]. With `Cc1nnc(SCC(=O)Nc2cccc(S(=O)(=O)N(C)c3ccccc3)c2)s1` the Potency was inconclusive: 2.31 µM [inhibitor, partial curve, poor fit]. For `CCCCCCCC(=O)N/N=C(\C)c1cccnc1`, the Potency was inconclusive: 23.1 µM [inhibitor, partial curve]. For `Cc1ccc(NC(=O)c2cc3nc(C)cc(C)n3n2)cc1`, the Potency was inconclusive: 2.91 µM [activator, full curve]. For `COc1ccc(-c2cc(C)no2)cc1S(=O)(=O)N1CC(=O)Nc2ccccc21`, the Potency was inconclusive: 20.6 µM [activator, partial curve, poor fit]. With `Cc1cccnc1NC(=O)c1ccc2nc(N)sc2c1` the Potency was inconclusive: 16.4 µM [activator, partial curve]. In the case of `COc1ccc(CNc2cccc(C)n2)c(O)c1`, the Potency is reported as “inactive”. In the case of `CCOc1ccccc1C(=O)Nc1ccccc1-c1ccccc1`, the Potency is reported as “inactive”. For `CCOc1ccc(CCNC(=O)c2cccc(S(=O)(=O)N3CCN(C(C)=O)CC3)c2)cc1OCC`, the Potency was “inactive”. With `Cc1noc(C)c1NC(=O)Nc1ccc2c(c1)C(=O)N([C@H](C)CO)C[C@H](C)[C@H](CN(C)C)O2` the Potency was inconclusive: 18.3 µM [activator, partial curve, poor fit]. In the case of `N#CC(C#N)=CC1=C2OC(c3ccccc3)=CC(c3ccccc3)=C2CCC1`, the Potency is reported as “inactive”. With `CC(C)c1nnc(NC(=O)CSc2ccccc2)s1` the Potency was inconclusive: 13 µM [activator, partial curve, poor fit]. In the case of `CCN1CCc2c(sc(NC(=S)NC(=O)c3ccco3)c2C(N)=O)C1`, the Potency is reported as inconclusive: 29.1 µM [activator, single point]. For `O=C(c1sc2cccc(F)c2c1Cl)N1CCN(c2ncccn2)CC1`, the Potency was inconclusive: 29.1 µM [inhibitor, single point]. For `CCC(=O)Nc1ccccc1C(=O)OCc1ccc(C(=O)c2ccccc2)cc1`, the Potency was “inactive”. With `O=C(c1cccc(C(F)(F)F)c1)c1c[nH]c(C(=O)NCC2CCCO2)c1` (stereo not drawn) the Potency was inconclusive: 18.3 µM [inhibitor, single point]. In the case of `O=C(COc1ccccc1Cl)NNC(=O)c1ccc(-n2cncn2)c([N+](=O)[O-])c1`, the Potency is reported as inconclusive: 2.82 µM [activator, partial curve]. For `CN(C)c1ccc(/C=C2\C(=N)N3C(=NC2=O)Sc2cc(S(C)(=O)=O)ccc23)cc1`, the Potency was “inactive”. With `COc1ccc(C2=NOC(C(=O)N3CCOCC3)C2)cc1OC` (stereo not drawn) the Potency was inconclusive: 23.1 µM [activator, single point]. In the case of `COc1cc(OC)c2c(-c3cccc(-c4cccc(C)c4)c3)cc(=O)oc2c1`, the Potency is reported as inconclusive: 7.3 µM [inhibitor, partial curve]. In the case of `Cc1cc(C)c(S(=O)(=O)NCC(c2cccnc2)N2CCN(Cc3ccccc3)CC2)c(C)c1` (stereo not drawn), the Potency is reported as “inactive”. For `CC(=O)c1ccc(Nc2nc(C)cc(C)n2)cc1`, the Potency was inconclusive: 14.6 µM [activator, partial curve]. In the case of `NC(=O)c1ccc(-c2ccccc2F)cc1`, the Potency is reported as inconclusive: 16.4 µM [activator, single point]. In the case of `O=C(NC1CCN(Cc2ccccc2)CC1)c1cccc(Br)c1`, the Potency is reported as “inactive”. For `C/C(=N\NC(=O)c1cc(C(C)C)[nH]n1)c1ccncc1`, the Potency was inconclusive: 20.6 µM [activator, partial curve]. For `O=C(CN1CCCCC1)NC(=O)Nc1ccccc1F`, the Potency was inconclusive: 29.1 µM [activator, single point]. In the case of `CCc1ccc(NC(=O)c2cnc(N3CCN(c4ccccn4)CC3)c3ccccc23)cc1`, the Potency is reported as inconclusive: 5.8 µM [inhibitor, single point]. With `CCC(=O)Nc1cc(C)c(NC(=O)c2ccccc2OC)cn1` the Potency was inconclusive: 13 µM [activator, partial curve]. In the case of `O=C(CSc1nc(-c2ccccc2)ns1)N1CCOCC1`, the Potency is reported as inconclusive: 10.3 µM [activator, partial curve]. For `CCOc1ccc(-c2cccc(NS(=O)(=O)c3ccccc3[N+](=O)[O-])c2)nn1`, the Potency was inconclusive: 13 µM [activator, partial curve, poor fit]. With `CCCc1c(C)c(C#N)c2nc3ccccc3n2c1NCCCN1CCOCC1` the Potency was inconclusive: 20.6 µM [inhibitor, partial curve]. For `O=C(N/N=C/c1cccc(Br)c1)c1ccc(Br)cc1`, the Potency was inconclusive: 14.6 µM [activator, partial curve]. In the case of `COc1ccccc1-c1noc(-c2cccnc2)n1`, the Potency is reported as inconclusive: 18.4 µM [activator, partial curve]. With `Cc1ccc(-c2nnc(N3CCN(C(=O)COc4cccc(C)c4)CC3)c3ccccc23)cc1` the Potency was inconclusive: 13 µM [inhibitor, partial curve]. For `O=C(COc1cccc(C(F)(F)F)c1)NNC(=O)Cc1ccc(S(=O)(=O)N2CCOCC2)s1`, the Potency was inconclusive: 20.6 µM [inhibitor, single point]. With `O=C(Nc1ccc(-n2cccn2)cc1)C1CCCCN1Cc1cccc2cccnc12` (stereo not drawn) the Potency was inconclusive: 32.6 µM [inhibitor, single point]. With `CCCc1cc(=O)oc2cc(OC(C)C(=O)NCC3CCC(C(=O)O)CC3)c(Cl)cc12` (stereo not drawn) the Potency was inconclusive: 0.0231 µM [activator, full curve, poor fit]. In the case of `COc1cc(C(=S)N2CCOCC2)cc(OC)c1OC(=O)c1cccc(C)c1`, the Potency is reported as inconclusive: 29.1 µM [inhibitor, single point]. For `CCC(C)/C=C/C1=CC2=C(Cl)C(=O)C3(C)OC(=O)C(C(=O)C(C)C(C)O)C3C2=CO1` (stereo not drawn), the Potency was “inactive”. For `CCOc1ccc(-n2nc3c(SCCN4CCCC4)nnc(C)c3c2C)cc1`, the Potency was “inactive”. With `C=CCn1c(=O)c2ccccc2n2c(SCC(=O)NCC)nnc12` the Potency was “inactive”. In the case of `Cc1cn2c(N)c(C=C3C=C(Cl)C(=O)C(Cl)=C3)c(=O)nc2s1`, the Potency is reported as inconclusive: 29.1 µM [inhibitor, single point]. In the case of `NS(=O)(=O)c1cccc(NC(=O)COC(=O)CC2Sc3ccccc3NC2=O)c1` (stereo not drawn), the Potency is reported as inconclusive: 18.3 µM [activator, single point].

Source: PubChem BioAssay AID504467 (National Center for Advancing Translational Sciences (NCATS), 2011)
Potency means the concentration at half of the fitted maximal effect.
